Data from PubChem BioAssay AID540256 (National Center for Advancing Translational Sciences (NCATS), 2011).
In all, about 300,000 compounds went through this assay and about 3,700 (1.2%) were called active. The inconclusive results got no clear call from the source; some entries with a clear call stand among them for comparison. Calls come from the whole dose curve; tested in HEK293 cells. A potency beside an inconclusive call is a rough fit, not a confirmed value.

Experiment: qHTS for Inhibitors of binding or entry into cells for Lassa Virus; note: nearly all actives have a fitted effect of over 50% in size
Settings: Lassa virus pseudotype entry inhibition, cell reporter; activity change, negative = inhibition: at 37.9 µM (top of the series) unless noted
% is set by controls: 0 for no effect and ±100 for the full control effect; potency is the fitted concentration of half-maximal effect.

Structure (SMILES) | activity change, negative = inhibition | Potency
O=C(c1cn(-c2ccccc2)nc1-c1cc2ccccc2oc1=O)N1CCOCC1 | inactive: -3.07% [at 46.1 µM] | 
CCSc1nnc(NC(=O)CSc2sc3c(O)cc(=O)[nH]c3c2C#N)s1 | inactive: 16.7% | 
CCN(Cc1ccccc1)C(=O)CCc1nnc(CCCc2ccccc2)o1 |  | inconclusive: 22.4 µM [inhibitor, single point]
Clc1ccc(-c2cnc(Oc3ccccc3)nc2)cc1 |  | inconclusive: 25.1 µM [inhibitor, single point]
COc1ccc(/C=N/Nc2ccc([N+](=O)[O-])cc2)cc1O |  | inconclusive: 15.8 µM [inhibitor, single point]
O=C(Nc1ccc(Cl)cc1F)C1CC1c1ccccc1 (stereo not drawn) |  | inconclusive: 22.4 µM [inhibitor, single point]
CN(C)c1cccc(C(=O)N2CCC(n3nccc3NC(=O)C3CCOC3)CC2)c1 (stereo not drawn) |  | inconclusive: 7.08 µM [activator, partial curve, poor fit]
CC(C)c1ccc2oc(-c3ccc(N)cc3)nc2c1 |  | inconclusive: 13 µM [inhibitor, partial curve, poor fit]
Cc1cccc(NCc2ccc(Br)cc2)n1 |  | inconclusive: 35.5 µM [inhibitor, single point]
Cc1ccc(N=C2NC(=O)/C(=C/C=C/c3ccco3)S2)cc1C |  | inconclusive: 9.2 µM [inhibitor, partial curve]
O=C(CSc1ncc(S(=O)(=O)c2ccc(Cl)cc2)c(=O)[nH]1)Nc1cccc(C(F)(F)F)c1 |  | inconclusive: 11.2 µM [activator, partial curve, poor fit]
Cc1cc(OCC(=O)N(Cc2ccc(N(C)C)cc2)CC2CCCO2)ccc1Cl (stereo not drawn) |  | inconclusive: 2.82 µM [inhibitor, full curve, poor fit]
O=C(NCCc1ccc(Cl)cc1Cl)c1cc([N+](=O)[O-])c[nH]c1=O |  | inconclusive: 31.6 µM [inhibitor, single point]
CCOc1ccc(CN(CCCl)CCCl)cc1C(=O)OC |  | inconclusive: 29.1 µM [inhibitor, single point]
CC(C)Oc1ccc(C(=O)N(Cc2ccco2)Cc2cccs2)cc1 |  | inconclusive: 11.2 µM [inhibitor, partial curve, poor fit]
CCN(Cc1ccccc1)C(c1cc2cc(C)cc(C)c2[nH]c1=O)c1nnnn1CCOC (stereo not drawn) | inactive: -22.3% | 
Cc1ccc(CN2C(=O)CCSc3ccc(Cl)cc32)cc1 |  | inconclusive: 2.51 µM [inhibitor, full curve]
CC(/C=C/c1ccccc1)=N\NC(=O)c1ccc2c(c1)OCCO2 |  | inconclusive: 6.31 µM [inhibitor, full curve]
CCOc1ccc(-c2nc(CN(Cc3ccccc3)C[C@@H]3CCC(=O)N3)c(C)o2)cc1 |  | inconclusive: 11.2 µM [inhibitor, partial curve, poor fit]
CN(C)c1nc2c(Br)c(Br)c(Br)c(Br)c2[nH]1 |  | inconclusive: 20.6 µM [inhibitor, single point]
COc1ccc(CC2S/C(=N/N=C/c3ccc(O)cc3)NC2=O)cc1 (stereo not drawn) |  | active: 1.46 µM
O=c1c2[nH]c3ccc(F)cc3c2nc2n1CCCS2 | inactive: 1.38% | 

Structure (SMILES) | activity change, negative = inhibition | Potency
Cc1cccc(CCNC(=O)c2cccc3c2C(=O)N(C2CCCCC2)C3)c1 |  | inconclusive: 35.5 µM [inhibitor, partial curve, poor fit]
COc1ccc(-c2nc(SCC(=O)Nc3c(C)cc(C)cc3C)n[nH]2)cc1 |  | inconclusive: 2.51 µM [inhibitor, partial curve, poor fit]
COc1ccccc1CNC(=O)c1ccc2nc(CCc3ccccc3)oc2c1 | inactive: -12% [at 46.1 µM] | 
COc1ccc2sc(NC(=O)NC(=O)c3c(Cl)cccc3Cl)nc2c1 |  | inconclusive: 15.8 µM [inhibitor, partial curve, poor fit]
COc1cccc(-c2nc(S(=O)(=O)c3ccc(C)cc3)c(N3CCCCC3)o2)c1 |  | inconclusive: 7.94 µM [inhibitor, partial curve, poor fit]
O=C(CNC(c1ccccc1)c1ccccc1)Nc1ccccc1F |  | inconclusive: 35.5 µM [inhibitor, partial curve, poor fit]
O=C(Oc1ccc2ccccc2c1Cl)N1CCCCCC1 |  | inconclusive: 5.62 µM [inhibitor, full curve, poor fit]
Cc1ccc(NC(=O)CS(=O)CC(=O)N(c2ccc(C)cc2)C(C)C(=O)NC2CCCCC2)cc1 (stereo not drawn) |  | inconclusive: 6.51 µM [activator, single point]
Cc1cc(C(=O)CCC(=O)N(C)CC(=O)Nc2c(Cl)cccc2Cl)c(C)s1 | inactive: 0.461% [at 46.1 µM] | 
O=C(NC1CCS(=O)(=O)C1)c1sc2ccccc2c1Cl (stereo not drawn) |  | inconclusive: 12.6 µM [activator, partial curve, poor fit]
O=C1CN(C(=O)c2ccccc2F)C(c2ccc(F)cc2)c2cc(Br)ccc2N1 (stereo not drawn) |  | inconclusive: 15.8 µM [inhibitor, single point]
O=C(c1ccncc1)N1CCN(S(=O)(=O)c2cccc(F)c2)CC1 | inactive: 4% | 
CN1CCN(c2ccc(NC(=O)Oc3ccccc3)cc2)CC1 | inactive: 4.18% | 
COc1cc(C(=O)Nc2ccc(C)cc2)c2ccccc2n1 |  | inconclusive: 3.55 µM [inhibitor, single point]
CC(=O)Nc1ccc(C(=O)Nc2cc(C(F)(F)F)ccc2-n2cnc3ccccc32)cc1 | inactive: -2.15% | 
OC(CON=C1c2ccccc2-c2ccccc21)CN1CCNCC1 (stereo not drawn) |  | inconclusive: 35.5 µM [inhibitor, single point]
COc1ccc(CCNC(=O)c2cccnc2SC)cc1 |  | inconclusive: 0.562 µM [inhibitor, full curve, poor fit]
O=C(NCCNC(=O)c1ccc(-c2ccc(Cl)c(Cl)c2)o1)c1cnccn1 | inactive: -21.6% [at 46.1 µM] | 
COc1ccc(CC(=O)NNC(=O)CCC(=O)Nc2cc(C)ccc2C)cc1 | inactive: -8.38% | 
CC(=O)N1CCc2cc(S(=O)(=O)NC(CC(C)C)C(=O)N3CCn4c3nc3ccccc34)ccc21 (stereo not drawn) |  | inconclusive: 32.6 µM [inhibitor, single point]
C=CCOC(=O)N[C@H](c1ccc2ccccc2c1)[C@H](C)C=CCC(=O)OC |  | inconclusive: 7.5 µM [inhibitor, single point]

Rewritten with tabs: entries from further up.
Structure (SMILES)	activity change, negative = inhibition	Potency
Cc1cccc(CCNC(=O)c2cccc3c2C(=O)N(C2CCCCC2)C3)c1		inconclusive: 35.5 µM [inhibitor, partial curve, poor fit]
C=CCOC(=O)N[C@H](c1ccc2ccccc2c1)[C@H](C)C=CCC(=O)OC		inconclusive: 7.5 µM [inhibitor, single point]
